Experimental data taken from publication PMC8602261.
Results are given in words; binding and its absence hold for the method and conditions named. Binding seen in cells or lysates may run through a third protein. Some entries that bind do so weakly or less than the wild type. For some assays here: Sequences can lack the tags named with a protein.

Protein sequences, listed by entry. Tags and fused reporters are not part of them. Lines headed by an entry give the natural chain unless they say otherwise; changes in a name come on top. Residues count along the entry.
UniProt Q9NZQ7: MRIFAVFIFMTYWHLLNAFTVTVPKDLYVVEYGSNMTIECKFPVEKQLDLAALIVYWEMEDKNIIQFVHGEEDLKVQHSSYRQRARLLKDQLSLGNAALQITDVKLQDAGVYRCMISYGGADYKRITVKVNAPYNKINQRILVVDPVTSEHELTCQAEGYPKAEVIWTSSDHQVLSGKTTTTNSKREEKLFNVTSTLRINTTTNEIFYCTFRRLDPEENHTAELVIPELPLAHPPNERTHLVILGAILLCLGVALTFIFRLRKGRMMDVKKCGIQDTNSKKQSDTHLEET
programmed death-ligand 1 (PD-L1), endogenous (human (endogenous in PLC and MHCC-97H)): residues 19-290 of Q9NZQ7
UniProt P21926: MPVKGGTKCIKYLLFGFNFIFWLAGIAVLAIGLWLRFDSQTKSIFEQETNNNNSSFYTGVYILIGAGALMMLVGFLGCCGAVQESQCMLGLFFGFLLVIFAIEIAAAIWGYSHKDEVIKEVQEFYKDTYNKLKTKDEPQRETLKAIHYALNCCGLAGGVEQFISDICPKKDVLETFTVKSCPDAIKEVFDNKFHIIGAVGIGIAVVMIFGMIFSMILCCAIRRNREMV
UniProt Q92905: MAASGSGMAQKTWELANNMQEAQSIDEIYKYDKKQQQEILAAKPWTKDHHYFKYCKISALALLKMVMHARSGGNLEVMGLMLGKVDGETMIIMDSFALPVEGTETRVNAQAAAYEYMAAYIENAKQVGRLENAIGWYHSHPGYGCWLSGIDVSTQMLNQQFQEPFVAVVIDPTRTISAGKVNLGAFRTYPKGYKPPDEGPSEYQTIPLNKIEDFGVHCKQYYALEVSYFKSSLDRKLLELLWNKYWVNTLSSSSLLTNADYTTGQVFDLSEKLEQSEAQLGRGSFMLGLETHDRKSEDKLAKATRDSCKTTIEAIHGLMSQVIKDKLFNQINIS
UniProt Q8WUM4: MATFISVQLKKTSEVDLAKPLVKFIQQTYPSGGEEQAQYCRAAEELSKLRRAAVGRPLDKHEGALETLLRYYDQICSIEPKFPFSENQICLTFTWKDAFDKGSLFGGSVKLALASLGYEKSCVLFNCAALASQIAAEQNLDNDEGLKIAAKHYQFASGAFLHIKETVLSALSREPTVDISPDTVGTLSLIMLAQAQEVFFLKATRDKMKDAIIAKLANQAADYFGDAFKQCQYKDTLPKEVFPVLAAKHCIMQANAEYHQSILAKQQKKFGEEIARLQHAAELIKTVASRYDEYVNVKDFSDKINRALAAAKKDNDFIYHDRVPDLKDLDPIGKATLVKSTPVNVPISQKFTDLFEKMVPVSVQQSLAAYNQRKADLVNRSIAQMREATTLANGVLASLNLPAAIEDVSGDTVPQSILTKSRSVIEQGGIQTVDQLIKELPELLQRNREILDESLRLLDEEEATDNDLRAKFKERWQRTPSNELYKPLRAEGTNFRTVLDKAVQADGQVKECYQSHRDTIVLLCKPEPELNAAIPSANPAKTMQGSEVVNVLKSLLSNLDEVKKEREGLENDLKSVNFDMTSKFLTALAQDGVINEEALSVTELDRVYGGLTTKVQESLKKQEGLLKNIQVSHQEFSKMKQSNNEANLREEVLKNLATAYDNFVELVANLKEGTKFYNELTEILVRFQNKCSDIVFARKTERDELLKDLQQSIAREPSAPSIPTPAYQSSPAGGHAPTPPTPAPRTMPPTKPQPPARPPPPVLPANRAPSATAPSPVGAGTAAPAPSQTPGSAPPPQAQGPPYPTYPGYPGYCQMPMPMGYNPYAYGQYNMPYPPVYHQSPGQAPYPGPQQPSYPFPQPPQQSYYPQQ
UniProt P08962: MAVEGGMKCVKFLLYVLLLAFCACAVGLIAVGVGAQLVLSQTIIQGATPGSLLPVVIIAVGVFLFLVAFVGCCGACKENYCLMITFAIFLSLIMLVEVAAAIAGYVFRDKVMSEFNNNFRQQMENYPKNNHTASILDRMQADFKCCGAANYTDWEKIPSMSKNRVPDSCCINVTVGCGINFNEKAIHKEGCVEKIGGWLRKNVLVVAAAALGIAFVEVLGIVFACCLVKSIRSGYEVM

What was measured:
[1] = target: T1, Flag-GOLM1 (Golgi membrane protein 1) (UniProt Q8NBJ4); assay: co-IP; PLC cells transfected with FLAG-GOLM1 or empty vector (control), cell lysate, IP using anti-FLAG magnetic beads, Western blot
T1 sequence: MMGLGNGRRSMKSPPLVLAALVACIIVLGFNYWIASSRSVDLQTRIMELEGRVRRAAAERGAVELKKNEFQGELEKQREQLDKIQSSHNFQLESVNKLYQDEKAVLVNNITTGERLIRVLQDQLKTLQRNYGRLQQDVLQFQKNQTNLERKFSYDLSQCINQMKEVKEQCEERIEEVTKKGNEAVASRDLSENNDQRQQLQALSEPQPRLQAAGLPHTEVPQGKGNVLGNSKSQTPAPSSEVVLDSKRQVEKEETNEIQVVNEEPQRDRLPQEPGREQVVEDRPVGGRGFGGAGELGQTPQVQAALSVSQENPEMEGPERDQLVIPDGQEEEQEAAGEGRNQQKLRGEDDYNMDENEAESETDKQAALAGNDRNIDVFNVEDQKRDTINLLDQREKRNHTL

GST-GOLM1 = target: T2, GST-GOLM1 (UniProt Q8NBJ4); assay: pull-down; GST pulldown; GST-GOLM1 expressed in E. coli and purified; full-length PD-L1 produced via in vitro translation; only the target purified
T2 sequence: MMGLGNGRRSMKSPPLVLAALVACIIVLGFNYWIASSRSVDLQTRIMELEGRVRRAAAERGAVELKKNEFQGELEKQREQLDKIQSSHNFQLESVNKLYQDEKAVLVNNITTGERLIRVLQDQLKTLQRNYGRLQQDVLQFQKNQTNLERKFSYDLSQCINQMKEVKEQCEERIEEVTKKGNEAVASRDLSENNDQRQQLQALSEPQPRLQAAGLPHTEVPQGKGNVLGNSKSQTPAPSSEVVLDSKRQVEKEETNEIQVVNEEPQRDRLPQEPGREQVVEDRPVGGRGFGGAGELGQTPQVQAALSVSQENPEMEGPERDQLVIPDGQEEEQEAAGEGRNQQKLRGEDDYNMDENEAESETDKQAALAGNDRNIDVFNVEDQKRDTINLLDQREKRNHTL

[2] = target: programmed death-ligand 1 (PD-L1), endogenous (human (endogenous in PLC and MHCC-97H)) (UniProt Q9NZQ7); assay: co-IP; endogenous proteins in MHCC-97H cells, Western blot
[3] = target: T1, Flag-GOLM1 (Golgi membrane protein 1); assay: co-IP; exosomes of GOLM1^Flag PLC cells, IP using anti-FLAG magnetic beads, Western blot
[4] = target: programmed death-ligand 1 (PD-L1), endogenous (human (endogenous in PLC and MHCC-97H)) (UniProt Q9NZQ7); assay: co-IP; endogenous proteins in exosomes of MHCC-97H cells, Western blot

| Molecule | binding [1] | binding [2] | further results |
| --- | --- | --- | --- |
| full-length PD-L1, in vitro translated (from UniProt Q9NZQ7 1-290) |  |  | binding (GST-GOLM1): binds |
| CD9 (from UniProt P21926 1-228) | binds |  |  |
| COP9 signalosome 5 (CSN5) (from UniProt Q92905 1-334) | binds | binds |  |
| programmed death-ligand 1 (PD-L1), endogenous (from UniProt Q9NZQ7 19-290) | binds |  | binding [3]: binds |
| Golgi membrane protein 1 (GOLM1), endogenous (protein, UniProt Q8NBJ4 1-401) MMGLGNGRRSMKSPPLVLAALVACIIVLGFNYWIASSRSVDLQTRIMELEGRVRRAAAERGAVELKKNEFQGELEKQREQLDKIQSSHNFQLESVNKLYQDEKAVLVNNITTGERLIRVLQDQLKTLQRNYGRLQQDVLQFQKNQTNLERKFSYDLSQCINQMKEVKEQCEERIEEVTKKGNEAVASRDLSENNDQRQQLQALSEPQPRLQAAGLPHTEVPQGKGNVLGNSKSQTPAPSSEVVLDSKRQVEKEETNEIQVVNEEPQRDRLPQEPGREQVVEDRPVGGRGFGGAGELGQTPQVQAALSVSQENPEMEGPERDQLVIPDGQEEEQEAAGEGRNQQKLRGEDDYNMDENEAESETDKQAALAGNDRNIDVFNVEDQKRDTINLLDQREKRNHTL |  | binds | binding [4]: binds |

Further lines, with some results ahead:

| binding [1] | Molecule | binding [2] | further results |
| --- | --- | --- | --- |
| binds | Alix (from UniProt Q8WUM4 1-868) |  |  |
| binds | CD63 (from UniProt P08962 1-238) | binds |  |
